Values from PubChem BioAssay AID1671195 (Yale University, 2021).

- Purpose: 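Genes whose knockdown alters LDL uptake in liver cancer cells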 (primary screen)
- Cell system: human Huh7 hepatoma cells
- Knock-down reagent: siRNA pool against human genes, 18 nM
- Timing: about 2 to 2.5 days of knockdown, then 8 h LDL uptake
- Conditions: DiI-labelled LDL at 30 µg/ml for 8 h, in lipoprotein-deficient serum medium
- Detection: 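Per-cell DiI-LDL intensity by automated imaging; well means scaled to the plate median and given as a robust z-score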
- Reading the numbers: robust z-score: higher = more LDL uptake after knockdown
- Active means: 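a gene counts as active if at least two replicate z-scores exceed ±2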
In all, the deposit lists about 22,000 reagents; shown is a part drawn at random. About 1,510 of them (6.9%) were called active. 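Active includes knockdowns raising or lowering LDL uptake; positive z-scores mean more uptake, negative mean less.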 A number with no mark means an inactive call. The numbers tell different reagents against one gene apart.

gene | reagent no. | robust z-score, replicate 1 | robust z-score, replicate 2 | robust z-score, replicate 3
AFG3L1P | 1 | -0.94 | -0.548 | -0.467
LOC389232 (retired record) | 1 | -1.15 | -0.842 | -0.796
MIGA2 | 1 | 0.797 | 0.912 | 0.681
EVX1 | 1 | 1.25 | 1.38 | 2.2
KRT77 | 1 | -0.0212 | 0.178 | 0.082
SOX2 | 1 | 0.413 | 1.4 | 1.83
MPP4 | 1 | -0.373 | -0.758 | -0.848
LOC401056 (retired record) | 1 | -0.0728 | 0.122 | -0.0749
OR8A1 | 1 | 1.75 | 1.16 | 1.76
LOC440420 (retired record) | 1 | -0.281 | -0.436 | -0.483
LOC440381 (retired record) | 1 | 1.35 | 1.74 | 1.47
EVI2B | 1 | -0.981 | -1.35 | -0.804
RBMX2 | 1 | 1.25 | 0.779 | 0.807
GAPDHP26 | 1 | -0.142 | 1.01 | 0.738
DCTN6 | 1 | 0.0926 | -0.709 | -0.966
NIPAL2 | 1 | -0.357 | -0.0175 | -0.391
LOC388917 (retired record) | 1 | -0.616 | -0.548 | -0.464
PSPC1 | 1 | 0.147 | -0.134 | -0.196
PLAAT2 | 1 | -1.27 | -0.0964 | -0.247
SNX22 | 1 | 1.33 | 0.882 | 0.316
SHC2 | 1 | -1.25 | -0.769 | -0.618
C1orf5 (retired record) | 1 | -0.344 | -0.748 | -1.66
TMEM106A | 1 | 2.17 (active) | 3.07 | 1.99
MACO1 | 1 | -0.293 | -0.381 | -0.312
LOC391807 (retired record) | 1 | -1.15 | -1.52 | -1.35
GNG4 | 1 | -0.88 | -1.08 | -0.972
MAG | 1 | 0.164 | -0.447 | -0.996
C7orf25 | 1 | -0.841 | -1.38 | -0.83
GLB1L3 | 1 | 2.54 (active) | 2.33 | 3.01
GLB1L3 | 2 | 0.0378 | 0.403 | 0.0991
RPL29P13 | 1 | 1.17 | -0.129 | -0.196
PIM1 | 1 | -1.51 | -1.55 | -1.84
LOC440004 (retired record) | 1 | 4.13 (active) | 3.99 | 4.27
ZFP2 | 1 | -0.568 | -0.215 | -0.109
SDR39U1 | 1 | 0.185 | 0.662 | -0.0598
CHD5 | 1 | 0.178 | -0.239 | -0.218
ZSCAN10 | 1 | 1.99 (active) | 2.15 | 1.46
TMBIM4 | 1 | -1.73 | -1.36 | -0.874
TCEAL6 | 1 | 1.95 (active) | 2.04 | 2.11
LINC02167 | 1 | 1.36 | 1.07 | 1.06
MAPK1 | 1 | -0.107 | 0.27 | 0.0263
TBX3 | 1 | -0.749 | 1.21 | 0.207
CELF1 | 1 | 0.416 | 0.841 | 0.278
THUMPD3 | 1 | 0.251 | -0.306 | -0.139
EFCAB12 | 1 | -0.448 | 0.0598 | 0.149
DNAJC7 | 1 | 2.05 | 1.25 | 1.67

Reformatted: results already given
| gene | reagent no. | robust z-score, replicate 1 | robust z-score, replicate 2 | robust z-score, replicate 3 |
| --- | --- | --- | --- | --- |
| LOC440004 (retired record) | 1 | 4.13 (active) | 3.99 | 4.27 |
| ZFP2 | 1 | -0.568 | -0.215 | -0.109 |
| SDR39U1 | 1 | 0.185 | 0.662 | -0.0598 |
| CHD5 | 1 | 0.178 | -0.239 | -0.218 |
| ZSCAN10 | 1 | 1.99 (active) | 2.15 | 1.46 |
| TMBIM4 | 1 | -1.73 | -1.36 | -0.874 |
| TCEAL6 | 1 | 1.95 (active) | 2.04 | 2.11 |
| LINC02167 | 1 | 1.36 | 1.07 | 1.06 |
